This note sets out measurements from paper PMC5514062.

In assay [1] the target is T1, heat shock protein 20 (mouse (endogenous in heart)) (UniProt Q5EBG6).
T1 sequence: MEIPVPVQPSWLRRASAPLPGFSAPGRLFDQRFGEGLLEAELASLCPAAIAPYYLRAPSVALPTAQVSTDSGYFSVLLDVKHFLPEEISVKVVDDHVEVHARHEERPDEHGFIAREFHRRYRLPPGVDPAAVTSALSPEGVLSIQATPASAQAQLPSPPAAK
The assay can be described thus: co-IP; IP-AC assay: WT or AC9-/- mouse heart extracts (also SAN, LV, RA homogenates) immunoprecipitated with anti-Yotiao or anti-Hsp20 (pre-immune or IgG control); associated AC activity stimulated with 300 nM Gαs and measured.

The target of a further assay is T2, Flag-tagged AC9 (human) (UniProt O60503).
T2 sequence: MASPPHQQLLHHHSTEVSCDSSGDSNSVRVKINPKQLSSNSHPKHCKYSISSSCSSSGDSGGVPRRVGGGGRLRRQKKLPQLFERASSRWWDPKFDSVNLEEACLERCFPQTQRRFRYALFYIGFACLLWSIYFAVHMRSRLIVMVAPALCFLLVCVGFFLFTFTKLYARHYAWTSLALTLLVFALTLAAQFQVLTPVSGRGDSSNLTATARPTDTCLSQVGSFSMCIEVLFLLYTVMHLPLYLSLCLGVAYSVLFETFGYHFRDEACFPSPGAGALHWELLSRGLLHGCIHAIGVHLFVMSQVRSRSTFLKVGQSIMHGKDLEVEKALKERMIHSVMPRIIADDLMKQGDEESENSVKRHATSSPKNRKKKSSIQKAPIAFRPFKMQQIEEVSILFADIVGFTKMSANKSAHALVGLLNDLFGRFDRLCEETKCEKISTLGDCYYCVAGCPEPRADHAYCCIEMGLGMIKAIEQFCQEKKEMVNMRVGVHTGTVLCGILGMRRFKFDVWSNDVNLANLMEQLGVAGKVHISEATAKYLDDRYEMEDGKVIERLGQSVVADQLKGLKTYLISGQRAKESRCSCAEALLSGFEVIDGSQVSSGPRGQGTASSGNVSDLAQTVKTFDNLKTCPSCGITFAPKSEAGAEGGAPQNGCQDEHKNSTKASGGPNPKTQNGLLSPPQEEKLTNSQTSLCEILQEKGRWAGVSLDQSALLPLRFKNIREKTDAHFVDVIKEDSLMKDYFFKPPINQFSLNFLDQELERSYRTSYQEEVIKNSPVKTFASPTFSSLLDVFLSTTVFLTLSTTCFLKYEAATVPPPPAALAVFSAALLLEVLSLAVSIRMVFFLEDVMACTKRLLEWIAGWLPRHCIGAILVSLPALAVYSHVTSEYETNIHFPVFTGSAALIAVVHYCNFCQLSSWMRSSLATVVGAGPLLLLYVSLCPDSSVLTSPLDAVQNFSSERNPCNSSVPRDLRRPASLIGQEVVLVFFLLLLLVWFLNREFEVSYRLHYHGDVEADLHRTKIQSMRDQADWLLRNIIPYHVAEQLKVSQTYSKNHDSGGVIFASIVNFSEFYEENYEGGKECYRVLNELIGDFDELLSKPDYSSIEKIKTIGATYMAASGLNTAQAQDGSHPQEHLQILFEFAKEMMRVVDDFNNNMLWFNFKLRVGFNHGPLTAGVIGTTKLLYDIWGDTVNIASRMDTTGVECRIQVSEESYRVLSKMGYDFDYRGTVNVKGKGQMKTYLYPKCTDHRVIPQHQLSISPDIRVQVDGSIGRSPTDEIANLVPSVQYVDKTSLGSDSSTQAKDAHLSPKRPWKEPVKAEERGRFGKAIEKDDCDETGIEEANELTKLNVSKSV
The assay is described as follows: co-IP; HEK293 cells transfected with Flag-AC9, myc-Yotiao and V5-Hsp20 as indicated; lysates immunoprecipitated with anti-Flag or anti-Hsp20, western blot. In general terms: A western blot detects proteins with antibodies after separation by electrophoresis.

A further assay deals with T3, YFP-tagged AC9 (human) (UniProt O60503).
T3 sequence: T2 sequence
The assay can be described thus: proximity ligation; Duolink in situ PLA in transfected, fixed HEK293 cells; anti-Hsp20, anti-GFP, anti-Gβγ primary antibodies; high content microscopy, positive cells 4 or more dots.

A further assay addresses T4, V5-tagged Hsp20 (UniProt O14558).
T4 sequence: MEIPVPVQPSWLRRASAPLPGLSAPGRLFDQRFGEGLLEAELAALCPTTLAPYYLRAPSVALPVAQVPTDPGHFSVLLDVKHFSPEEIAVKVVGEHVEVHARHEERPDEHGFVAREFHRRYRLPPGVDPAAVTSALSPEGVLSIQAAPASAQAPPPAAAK
The assay is described as follows: co-IP; HEK293 cells transfected with Flag-AC9, myc-Yotiao and V5-Hsp20 as indicated; lysates immunoprecipitated with anti-Flag or anti-Hsp20, western blot.

Results are given in words; binding and its absence hold for the method and conditions named. Binding seen in cells or lysates may run through a third protein. Some entries that bind do so weakly or less than the wild type. For some of these results: Tags and fused reporters may be left off the sequences shown.

B1: Adenylyl cyclase type 9 (enzyme, UniProt P51830 1-1353)
chain: MASSPHQQLLHHHSTEVSCDSSGDSNSVRVKINPKQLSSNTHPKHCKYSISSSCSSSGDSGGLPRRVGGGGRLRRQKKLPQLFERASSRWWDPKFDSMNLEEACLERCFPQTQRRFRYALFYVGFACLLWSIYFAVHMKSKVIVMVVPALCFLVVCVGFFLFTFTKLYARHYAWTSLALTLLVFALTLAAQFQVWTPLSGRVDSSNHTLTATPADTCLSQVGSFSICIEVLLLLYTVMQLPLYLSLFLGVVYSVLFETFGYHFRNEDCYPSPGPGALHWELLSRALLHVCIHAIGIHLFVMSQVRSRSTFLKVGQSIMHGKDLEVEKALKERMIHSVMPRIIADDLMKQGDEESENSVKRHATSSPKNRKKKSSIQKAPIAFRPFKMQQIEEVSILFADIVGFTKMSANKSAHALVGLLNDLFGRFDRLCEQTKCEKISTLGDCYYCVAGCPEPRADHAYCCIEMGLGMIKAIEQFCQEKKEMVNMRVGVHTGTVLCGILGMRRFKFDVWSNDVNLANLMEQLGVAGKVHISEATAKYLDDRYEMEDGRVIERLGQSVVADQLKGLKTYLISGQRAKESHCSCAEALLSGFEVIDDSRESSGPRGQGTASPGSVSDLAQTVKTFDNLKTCPSCGITFAPKSEAGAEGGTVQNGCQDEPKTSTKASGGPNSKTQNGLLSPPAEEKLTNSQTSLCEILQEKGRWAGVSLDQSALLPLRFKNIREKTDAHFVDVIKEDSLMKDYFFKPPINQFSLNFLDQELERSYRTSYQEEVIKNSPVKTFASATFSSLLDVFLSTTVFLILSITCFLKYGATATPPPPAALAVFGADLLLEVLSLIVSIRMVFFLEDVMTCTKWLLEWIAGWLPRHCIGAILVSLPALAVYSHITSEFETNIHVTMFTGSAVLVAVVHYCNFCQLSSWMRSSLATIVGAGLLLLLHISLCQDSSIVMSPLDSAQNFSAQRNPCNSSVLQDGRRPASLIGKELILTFFLLLLLVWFLNREFEVSYRLHYHGDVEADLHRTKIQSMRDQADWLLRNIIPYHVAEQLKVSQTYSKNHDSGGVIFASIVNFSEFYEENYEGGKECYRVLNELIGDFDELLSKPDYNSIEKIKTIGATYMAASGLNTAQCQEGGHPQEHLRILFEFAKEMMRVVDDFNNNMLWFNFKLRVGFNHGPLTAGVIGTTKLLYDIWGDTVNIASRMDTTGVECRIQVSEESYRVLSKMGYDFDYRGTVNVKGKGQMKTYLYPKCTDNGVVPQHQLSISPDIRVQVDGSIGRSPTDEIANLVPSVQYSDKASLGSDDSTQAKEARLSSKRSWREPVKAEERFPFGKAIEKDSCEDIGVEEASELSKLNVSKSV
Consider B1, for which, in assay [1], the binding entry was “binds”.

B2: V5-tagged Hsp20 (protein, UniProt O14558 1-160)
chain: T4 sequence
Turning to B2, the binding entry with Flag-tagged AC9 (human) is recorded as “binds”.

B3: Hsp20 (in the proximity ligation assay) (protein, UniProt O14558 1-160)
chain: T4 sequence
With B3, the binding result with YFP-tagged AC9 (human) is recorded as “binds”.

B4: Flag-tagged AC9 (enzyme, UniProt O60503 1-1353)
chain: T2 sequence
Turning to B4, in the assay with V5-tagged Hsp20, the binding result is listed as “binds”.
